Results taken from publication PMC4350430.
Results are given in words; binding and its absence hold for the method and conditions named. In cells and extracts the contact can be indirect. For some assays here: Binding calls can cover weak binding; strength is not graded here. For some assays here: Tags and fused reporters may be left off the sequences shown.

Amino acid sequences for entries named in this document (tags omitted). A change or cut given only in a name is not applied to a line headed by its entry.
UniProt O04294: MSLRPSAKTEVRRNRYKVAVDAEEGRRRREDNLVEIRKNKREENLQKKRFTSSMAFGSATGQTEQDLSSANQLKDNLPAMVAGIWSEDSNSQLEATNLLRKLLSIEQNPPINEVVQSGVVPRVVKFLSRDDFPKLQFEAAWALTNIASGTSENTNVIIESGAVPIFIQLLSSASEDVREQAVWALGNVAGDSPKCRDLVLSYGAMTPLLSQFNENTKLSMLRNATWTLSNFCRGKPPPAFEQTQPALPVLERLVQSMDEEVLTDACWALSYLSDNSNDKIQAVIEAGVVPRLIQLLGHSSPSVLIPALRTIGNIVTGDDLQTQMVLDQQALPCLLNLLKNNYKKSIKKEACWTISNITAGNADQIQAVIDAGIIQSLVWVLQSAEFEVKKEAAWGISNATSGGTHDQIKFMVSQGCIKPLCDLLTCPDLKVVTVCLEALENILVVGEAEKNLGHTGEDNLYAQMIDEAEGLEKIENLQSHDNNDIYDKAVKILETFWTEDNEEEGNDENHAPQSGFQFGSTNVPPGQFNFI
UniProt Q29PT3: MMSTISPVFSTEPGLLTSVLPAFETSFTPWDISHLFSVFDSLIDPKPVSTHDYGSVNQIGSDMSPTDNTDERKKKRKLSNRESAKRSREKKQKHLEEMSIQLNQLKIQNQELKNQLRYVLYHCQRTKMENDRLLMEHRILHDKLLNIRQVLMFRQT

Key:
[1] = biological target: T1, GFP-tagged importin-α9 (Arabidopsis thaliana) (UniProt F4KF65); test: co-IP; GFP- or YFP-tagged importin-α co-expressed with StrepII-3xHA (HS)-tagged cargo in N. benthamiana, 48 h; importin-α IP-ed (GFP-Trap_A beads), co-purifying HS protein detected by α-HA western blot; 50 mM Tris, 150 mM NaCl, 10% glycerol, 1 mM EDTA, 5 mM DTT, pH 7.5, 4°C 2 h
T1 sequence: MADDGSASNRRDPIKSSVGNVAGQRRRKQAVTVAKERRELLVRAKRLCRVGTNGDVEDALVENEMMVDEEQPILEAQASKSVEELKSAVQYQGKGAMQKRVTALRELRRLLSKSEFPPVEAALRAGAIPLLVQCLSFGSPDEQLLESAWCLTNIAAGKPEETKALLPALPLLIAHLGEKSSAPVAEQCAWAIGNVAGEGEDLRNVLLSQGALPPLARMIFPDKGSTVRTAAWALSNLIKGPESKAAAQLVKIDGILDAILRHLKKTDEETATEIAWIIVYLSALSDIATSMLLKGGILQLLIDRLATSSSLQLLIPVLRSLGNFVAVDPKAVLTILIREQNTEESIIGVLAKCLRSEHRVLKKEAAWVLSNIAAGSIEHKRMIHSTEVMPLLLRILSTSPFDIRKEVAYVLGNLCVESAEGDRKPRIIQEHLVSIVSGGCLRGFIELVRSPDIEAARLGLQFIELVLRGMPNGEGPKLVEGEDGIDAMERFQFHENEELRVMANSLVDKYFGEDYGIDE

[2] = biological target: MOS6–YFP^C (Arabidopsis thaliana) (UniProt O04294); test: split reporter; BiFC: MOS6–YFP^C co-expressed with YFP^N-tagged cargo in epidermal cells of N. benthamiana, nuclei imaged 48 h post infiltration; read-out: speckles at the nuclear rim (a nucleoplasmic YFP signal was seen with all pairs)

Row | binding [2] | Substance | binding [1]
1 | – | StrepII-3xHA (HS)-tagged HaRxL106 (Hyaloperonospora arabidopsidis) | no binding
2 | binds | YFP^N–bZIP5 (from UniProt Q29PT3) | –
